In PMC10740027:
No constants are given. Whether binding was seen depends on the method and setting. In cells and extracts the contact can be indirect. Some results given as binding are weak or reduced against the parent protein; the word gives no strength. For some assays here: Sequences can lack the tags named with a protein.

T1: interferon-induced protein with tetratricopeptide repeats 3 (IFIT3) (human (endogenous in HCCLM3, Hep-3B, Huh-7)) (UniProt O14879)
T1 sequence: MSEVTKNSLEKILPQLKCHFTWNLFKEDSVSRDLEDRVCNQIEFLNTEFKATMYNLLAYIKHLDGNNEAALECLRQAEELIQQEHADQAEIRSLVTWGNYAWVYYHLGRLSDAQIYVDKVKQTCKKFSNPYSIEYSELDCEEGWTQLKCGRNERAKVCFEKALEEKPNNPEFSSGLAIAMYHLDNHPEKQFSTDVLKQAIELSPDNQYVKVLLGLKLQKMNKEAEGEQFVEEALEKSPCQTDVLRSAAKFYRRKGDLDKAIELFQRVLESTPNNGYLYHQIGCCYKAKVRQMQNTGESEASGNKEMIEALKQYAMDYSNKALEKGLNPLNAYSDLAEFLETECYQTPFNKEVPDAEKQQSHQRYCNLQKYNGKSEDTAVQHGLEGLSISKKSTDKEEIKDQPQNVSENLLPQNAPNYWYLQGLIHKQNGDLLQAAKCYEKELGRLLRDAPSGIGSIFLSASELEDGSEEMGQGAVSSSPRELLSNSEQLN

T2: IFIT3, tagged, expressed from a plasmid (UniProt O14879)
T2 sequence: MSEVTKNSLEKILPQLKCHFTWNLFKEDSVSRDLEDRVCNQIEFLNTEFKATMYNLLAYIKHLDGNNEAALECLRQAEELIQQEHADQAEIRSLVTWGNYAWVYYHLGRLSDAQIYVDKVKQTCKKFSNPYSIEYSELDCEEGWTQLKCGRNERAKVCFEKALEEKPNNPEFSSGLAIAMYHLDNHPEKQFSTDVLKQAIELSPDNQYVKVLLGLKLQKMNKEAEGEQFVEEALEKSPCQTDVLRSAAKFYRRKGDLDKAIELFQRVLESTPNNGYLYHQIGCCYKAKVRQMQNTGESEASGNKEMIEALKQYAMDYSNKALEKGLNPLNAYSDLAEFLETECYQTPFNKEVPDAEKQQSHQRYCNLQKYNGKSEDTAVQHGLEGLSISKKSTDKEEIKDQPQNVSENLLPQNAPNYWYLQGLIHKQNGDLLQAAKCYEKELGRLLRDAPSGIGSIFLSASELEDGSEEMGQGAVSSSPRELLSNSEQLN


Key:
[1] = biological target: T1, interferon-induced protein with tetratricopeptide repeats 3 (IFIT3) (human (endogenous in HCCLM3, Hep-3B, Huh-7)); assay: co-IP; endogenous proteins; lysates of HCCLM3, Hep-3B and Huh-7 cells; protein A/G magnetic beads with anti-UBE2O or anti-IFIT3 antibodies; Western blot
[2] = biological target: T2, IFIT3, tagged, expressed from a plasmid; assay: co-IP; 293 T cells transfected with plasmids containing different tags, 48 h, MG132 (10 μM) 4-6 h; protein A/G beads and antibodies specific for the corresponding tags; Western blot

Row | binding [1] | binding [2] | Binder
1 | binds | – | Ubiquitin Conjugating Enzyme E2O (UBE2O) (enzyme, UniProt Q9C0C9 1-1292) MADPAAPTPAAPAPAQAPAPAPEAVPAPAAAPVPAPAPASDSASGPSSDSGPEAGSQRLLFSHDLVSGRYRGSVHFGLVRLIHGEDSDSEGEEEGRGSSGCSEAGGAGHEEGRASPLRRGYVRVQWYPEGVKQHVKETKLKLEDRSVVPRDVVRHMRSTDSQCGTVIDVNIDCAVKLIGTNCIIYPVNSKDLQHIWPFMYGDYIAYDCWLGKVYDLKNQIILKLSNGARCSMNTEDGAKLYDVCPHVSDSGLFFDDSYGFYPGQVLIGPAKIFSSVQWLSGVKPVLSTKSKFRVVVEEVQVVELKVTWITKSFCPGGTDSVSPPPSVITQENLGRVKRLGCFDHAQRQLGERCLYVFPAKVEPAKIAWECPEKNCAQGEGSMAKKVKRLLKKQVVRIMSCSPDTQCSRDHSMEDPDKKGESKTKSEAESASPEETPDGSASPVEMQDEGAEEPHEAGEQLPPFLLKEGRDDRLHSAEQDADDEAADDTDDTSSVTSSASSTTSSQSGSGTSRKKSIPLSIKNLKRKHKRKKNKITRDFKPGDRVAVEVVTTMTSADVMWQDGSVECNIRSNDLFPVHHLDNNEFCPGDFVVDKRVQSCPDPAVYGVVQSGDHIGRTCMVKWFKLRPSGDDVELIGEEEDVSVYDIADHPDFRFRTTDIVIRIGNTEDGAPHKEDEPSVGQVARVDVSSKVEVVWADNSKTIILPQHLYNIESEIEESDYDSVEGSTSGASSDEWEDDSDSWETDNGLVEDEHPKIEEPPIPPLEQPVAPEDKGVVISEEAATAAVQGAVAMAAPMAGLMEKAGKDGPPKSFRELKEAIKILESLKNMTVEQLLTGSPTSPTVEPEKPTREKKFLDDIKKLQENLKKTLDNVAIVEEEKMEAVPDVERKEDKPEGQSPVKAEWPSETPVLCQQCGGKPGVTFTSAKGEVFSVLEFAPSNHSFKKIEFQPPEAKKFFSTVRKEMALLATSLPEGIMVKTFEDRMDLFSALIKGPTRTPYEDGLYLFDIQLPNIYPAVPPHFCYLSQCSGRLNPNLYDNGKVCVSLLGTWIGKGTERWTSKSSLLQVLISIQGLILVNEPYYNEAGFDSDRGLQEGYENSRCYNEMALIRVVQSMTQLVRRPPEVFEQEIRQHFSTGGWRLVNRIESWLETHALLEKAQALPNGVPKASSSPEPPAVAELSDSGQQEPEDGGPAPGEASQGSDSEGGAQGLASASRDHTDQTSETAPDASVPPSVKPKKRRKSYRSFLPEKSGYPDIGFPLFPLSKGFIKSIRGVLTQFRAALLEAGMPECTEDK
2 | – | binds | UBE2O, tagged, expressed from a plasmid (enzyme, UniProt Q9C0C9 1-1292) MADPAAPTPAAPAPAQAPAPAPEAVPAPAAAPVPAPAPASDSASGPSSDSGPEAGSQRLLFSHDLVSGRYRGSVHFGLVRLIHGEDSDSEGEEEGRGSSGCSEAGGAGHEEGRASPLRRGYVRVQWYPEGVKQHVKETKLKLEDRSVVPRDVVRHMRSTDSQCGTVIDVNIDCAVKLIGTNCIIYPVNSKDLQHIWPFMYGDYIAYDCWLGKVYDLKNQIILKLSNGARCSMNTEDGAKLYDVCPHVSDSGLFFDDSYGFYPGQVLIGPAKIFSSVQWLSGVKPVLSTKSKFRVVVEEVQVVELKVTWITKSFCPGGTDSVSPPPSVITQENLGRVKRLGCFDHAQRQLGERCLYVFPAKVEPAKIAWECPEKNCAQGEGSMAKKVKRLLKKQVVRIMSCSPDTQCSRDHSMEDPDKKGESKTKSEAESASPEETPDGSASPVEMQDEGAEEPHEAGEQLPPFLLKEGRDDRLHSAEQDADDEAADDTDDTSSVTSSASSTTSSQSGSGTSRKKSIPLSIKNLKRKHKRKKNKITRDFKPGDRVAVEVVTTMTSADVMWQDGSVECNIRSNDLFPVHHLDNNEFCPGDFVVDKRVQSCPDPAVYGVVQSGDHIGRTCMVKWFKLRPSGDDVELIGEEEDVSVYDIADHPDFRFRTTDIVIRIGNTEDGAPHKEDEPSVGQVARVDVSSKVEVVWADNSKTIILPQHLYNIESEIEESDYDSVEGSTSGASSDEWEDDSDSWETDNGLVEDEHPKIEEPPIPPLEQPVAPEDKGVVISEEAATAAVQGAVAMAAPMAGLMEKAGKDGPPKSFRELKEAIKILESLKNMTVEQLLTGSPTSPTVEPEKPTREKKFLDDIKKLQENLKKTLDNVAIVEEEKMEAVPDVERKEDKPEGQSPVKAEWPSETPVLCQQCGGKPGVTFTSAKGEVFSVLEFAPSNHSFKKIEFQPPEAKKFFSTVRKEMALLATSLPEGIMVKTFEDRMDLFSALIKGPTRTPYEDGLYLFDIQLPNIYPAVPPHFCYLSQCSGRLNPNLYDNGKVCVSLLGTWIGKGTERWTSKSSLLQVLISIQGLILVNEPYYNEAGFDSDRGLQEGYENSRCYNEMALIRVVQSMTQLVRRPPEVFEQEIRQHFSTGGWRLVNRIESWLETHALLEKAQALPNGVPKASSSPEPPAVAELSDSGQQEPEDGGPAPGEASQGSDSEGGAQGLASASRDHTDQTSETAPDASVPPSVKPKKRRKSYRSFLPEKSGYPDIGFPLFPLSKGFIKSIRGVLTQFRAALLEAGMPECTEDK
